The other results are listed elsewhere or left out. Further columns of the screen follow, without active or inactive calls. The list favours compounds with an active or inconclusive main result. Potencies come from curve fits of mixed quality, noted in brackets.
Experiment: qHTS Assay for Lipid Storage Modulators in Drosophila S3 Cells;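 as to cell number change: cells counted by Cell Tracker Red CMTPX staining in the red channel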
Conditions: BODIPY lipid droplet fluorescence, 18-24 h; for cell number change: measured here: cell count max response, cells fed with added oleic acid
Procedure, shortened: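 Drosophila S3 cells loaded with oleic acid (400 uM, as added) and compounds at several concentrations; lipid droplets imaged by 488-nm laser-scanning cytometry, 500–530 nm intensity and object ratio to cell channel. Percent activity normalized to 20 uM Triacsin C.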

[1] = measured here: cell number channel AC50, cells fed with added oleic acid
[2] = measured here: lipid fluorescence (Fed channel) AC50, cells fed with added oleic acid

Row | SMILES | cell number change [%] | AC50 [1] | AC50 [2]
1 | CC1=C(C(=O)OC(C)C)C(c2ccc(C)o2)C(C(=O)OC(C)C)=C(C)N1 | 9.71 | – | –
2 | CC(=O)N1CCc2c(sc(NC(=O)C3CCCN3S(=O)(=O)c3cccs3)c2C(N)=O)C1 (stereo not given) | – | 0.58 µM [rising, full curve] | –
3 | COc1cccc(NC(=O)CN(C)C(=O)/C=C/c2cc(OC)ccc2OC)c1 | 22.7 | – | 0.206 µM [rising, full curve, poor fit]
4 | CCc1ccc(C(=O)Nc2cc(C)on2)o1 | -3.48 | – | 0.58 µM [rising, single point]
5 | CNC1=CC(=O)CC(c2ccccc2)C1 (stereo not given) | -6.87 | – | 2.06 µM [falling, full curve]
6 | Cc1nc(-c2cccc(S(=O)(=O)N3CCC(C)CC3)c2)cs1 | -23.2 | – | –
7 | Cc1ccc(OCCn2c(NC(=O)c3ccco3)nc3ccccc32)cc1 | -11.1 | – | 1.84 µM [rising, partial curve]
8 | Cc1ccnc2nc(C(=O)N3CCN(c4ccc(F)cc4)CC3)nn12 | 7.59 | – | 16.4 µM [rising, single point]
9 | COc1ccccc1N1CCN(Cc2ccc(Br)o2)CC1 | – | 0.13 µM [falling, full curve, poor fit] | –
10 | COc1ccccc1/C=N/NC(=O)c1cccc(NC(=O)c2ccccc2C)c1 | -11.7 | – | 0.00461 µM [rising, full curve, poor fit]
11 | COC(=O)c1ccc(Nc2ccc3nonc3c2[N+](=O)[O-])cc1 | 2.64 | – | 0.92 µM [rising, full curve, poor fit]
12 | CCC(C)n1[nH]c(=O)c2c(C)cc(C)nc21 (stereo not given) | -80.1 | 18.4 µM [falling, single point] | –
13 | CCOC(=O)c1c(C)n(C)c2ccc(OCC(O)CN(CC)CC)cc12 (stereo not given) | 7.37 | – | 0.164 µM [rising, full curve, poor fit]
14 | CCN(C(=O)COC(=O)CCC1CCCC1)c1c(N)n(Cc2ccccc2)c(=O)[nH]c1=O | 1.15 | – | 0.366 µM [falling, single point]
15 | C/C(=N\N=C1\NC(=O)CC(C(=O)O)S1)c1cccs1 (stereo not given) | 3.16 | – | –
16 | Cc1cccc(CSC2=NCCN2S(=O)(=O)c2ccc(F)cc2)c1 | – | – | 29.1 µM [falling, single point]
17 | CCOC(=O)c1ccc(S(=O)(=O)N2CCC(C(=O)Nc3nnc(C)o3)CC2)cc1 | 4.02 | – | –
18 | CC1C(C#N)=C(SCC(N)=O)NC2=C1C(=O)CC(C)(C)C2 (stereo not given) | -27.7 | – | 13 µM [falling, partial curve, poor fit]
19 | C=CCSc1nnc(-c2sc(-c3ccccc3)nc2C)n1C | 103 | 1.84 µM [rising, partial curve] | 5.17 µM [rising, partial curve]
20 | CCOc1ccc2cc(C#N)c(SCC(=O)NC(C)CC)nc2c1 (stereo not given) | -4.46 | 6.51 µM [rising, single point] | –
21 | COc1ccc(NC(=O)CSc2c3c(nc4ccccc24)CCC3)c(OC)c1 | 10.5 | 4.61 µM [falling, single point] | 0.58 µM [falling, partial curve]

Sorted by SMILES length (low to high): part of the list above.
Row | SMILES | cell number change [%] | AC50 [1] | AC50 [2]
9 | COc1ccccc1N1CCN(Cc2ccc(Br)o2)CC1 | – | 0.13 µM [falling, full curve, poor fit] | –
15 | C/C(=N\N=C1\NC(=O)CC(C(=O)O)S1)c1cccs1 (stereo not given) | 3.16 | – | –
6 | Cc1nc(-c2cccc(S(=O)(=O)N3CCC(C)CC3)c2)cs1 | -23.2 | – | –
13 | CCOC(=O)c1c(C)n(C)c2ccc(OCC(O)CN(CC)CC)cc12 (stereo not given) | 7.37 | – | 0.164 µM [rising, full curve, poor fit]
21 | COc1ccc(NC(=O)CSc2c3c(nc4ccccc24)CCC3)c(OC)c1 | 10.5 | 4.61 µM [falling, single point] | 0.58 µM [falling, partial curve]

Next part.

Row | SMILES | cell number change [%] | AC50 [1] | AC50 [2]
22 | COc1ccc(C2(C(=O)NC3CCCCC3)CCOCC2)cc1OC | – | – | 4.11 µM [falling, partial curve]
23 | C[C@H](NC(=O)c1ccco1)C(=O)Nc1cccc([N+](=O)[O-])c1 | -51.5 | 14.6 µM [falling, partial curve, poor fit] | –
24 | CCN(CC)Cc1c(CC(C)C)oc(C)c1C(=O)O | 11.9 | – | 0.146 µM [falling, full curve, poor fit]
25 | CC(C)CN1CCC(=O)N([C@H](CO)Cc2ccccc2)CC1 | 36.6 | 29.1 µM [rising, single point] | –
26 | NC1=NC(=O)C2(COC(c3cccnc3)OC2)S1 (stereo not given) | -24.9 | 2.91 µM [falling, full curve, poor fit] | 6.51 µM [falling, single point]
27 | Cn1cnc([N+](=O)[O-])c1SCC(O)CN1CCCCC1 (stereo not given) | 61.4 | 29.1 µM [rising, single point] | –
28 | COc1ccc(N2CCN(C(=O)CN(C)S(=O)(=O)c3cccs3)CC2)cc1 | -21.4 | – | 3.66 µM [falling, partial curve]
29 | COc1ccc(NC(=O)COC(=O)c2cc(C)oc2C)cc1OC | -13.1 | – | –
30 | CC(C)CNC(=O)/C=C/C=C/CCCC/C=C/c1ccc2c(c1)OCO2 | -20.8 | 2.91 µM [falling, full curve, poor fit] | 3.26 µM [falling, full curve]
31 | CC(NC(=O)c1cccc(S(=O)(=O)N2CCN(Cc3ccccc3)CC2)c1)c1ccc(Cl)cc1 (stereo not given) | 85 | – | –
32 | COc1ccc(C(=O)OCC[N+]2(C)CCCCC2)cc1 | – | – | 0.0731 µM [rising, full curve, poor fit]
33 | O=C(C[C@H]1C(=O)N(c2ccc(F)c(F)c2)C[C@@H]1Cc1ccccc1)Nc1ccccc1 | 12 | – | –
34 | CCOC(=O)c1c(-c2ccc(C)o2)csc1NC(=O)COC(=O)c1ccc(NC(N)=O)cc1 | -72.8 | – | 29.1 µM [falling, single point]
35 | CCn1c(SCC(=O)Nc2ccccc2C(=O)OC)nnc1-c1ccoc1C | -20.1 | – | –
36 | Cc1cccn2c(CNC3CCCc4ccccc43)c(C(=O)N3CCOCC3)nc12 (stereo not given) | -10.2 | – | 0.00651 µM [rising, full curve, poor fit]
37 | C1CCC(n2nnnc2CN2CCCC2)CC1 | -5.93 | – | –
38 | CCOCCCNC(=O)CN1C(=O)/C(=C/c2ccccc2)Sc2ccccc21 | 0.803 | – | 1.3 µM [rising, single point]
39 | NS(=O)(=O)c1ccc(NC(=O)CN2CCN(Cc3ccccc3)CC2)cc1 | -18 | 0.00411 µM [falling, full curve, poor fit] | 3.26 µM [falling, partial curve, poor fit]
40 | O=C(Cn1cccn1)N1CCCC(N2CCN(c3cccc(C(F)(F)F)c3)CC2)C1 (stereo not given) | – | 0.00651 µM [falling, full curve, poor fit] | –
41 | CC(=O)C1=C(C)NC(SCc2ccc(C#N)cc2)=C(C#N)C1c1ccco1 (stereo not given) | -10.7 | 6.51 µM [rising, partial curve, poor fit] | –
42 | CCOC(=O)c1c(C)[nH]c(C(=O)CN2C(=O)C(=O)N(CC(C)C)C2=O)c1C | 24.3 | – | 6.51 µM [rising, partial curve, poor fit]

Row | SMILES | cell number change [%] | AC50 [1] | AC50 [2]
43 | Cc1c(NC(=O)c2ccc(Cl)c(S(=O)(=O)N3CCOCC3)c2)c(=O)n(-c2ccccc2)n1C | -8.33 | 0.411 µM [falling, partial curve] | 0.116 µM [falling, full curve, poor fit]
44 | Cc1cc(N2CCN(C)CC2)nc2ccc(NC(=O)c3ccc4c(c3)OCO4)cc12 | -8.41 | – | 4.11 µM [rising, partial curve]
45 | Cc1ccc(NC(=O)C(=O)NCCCN2CC(C(=O)O)CC2=O)cc1 (stereo not given) | 22.7 | – | –
46 | Cc1ccc(Cl)c(NC(=O)CCl)c1Cl | -72.6 | – | –
47 | Cn1c(C(=O)N2CCCC(C(=O)NCc3cccs3)C2)cc2sccc21 (stereo not given) | 70.8 | 1.64 µM [rising, partial curve] | 7.31 µM [rising, partial curve]
48 | COC(=O)CN1C2=NCCCN2c2ccccc21 | 31.9 | – | –
49 | c1ccc2c(NCC3CCCO3)nc(-c3ccncc3)nc2c1 (stereo not given) | -20.6 | – | –
50 | COc1ccc(CCn2c(N)c(C#N)c3nc4ccccc4nc32)cc1OC | 217 | 16.4 µM [rising, partial curve] | 2.31 µM [rising, partial curve]
51 | Nc1ccc2c(c1)C(=O)Cc1ccccc1S2 | 13 | – | 6.51 µM [rising, partial curve, poor fit]
52 | COc1cccc(C(=O)OCC(=O)c2[nH]c(C)c(C(C)=O)c2C)c1 | -12.3 | – | 0.13 µM [falling, full curve, poor fit]
53 | O=C(COC(=O)c1cc2ccccc2oc1=O)Nc1cccc(Br)c1 | -2.64 | – | 18.4 µM [rising, single point]
54 | O=C(O)c1ccc2[nH]c3c(c2c1)CCCC3 | 48.1 | 29.1 µM [rising, single point] | 29.1 µM [rising, single point]
55 | CN1CCN(CCc2nc3cc(NC(=O)COc4ccccc4)ccc3n2C)CC1 | 6.52 | – | 29.1 µM [rising, single point]
56 | Cc1cc(Nc2ccccc2Cl)n2nnnc2n1 | 12.3 | – | –
57 | CC1=C(C(=O)Nc2ccccc2C)C(c2ccc(C)o2)N2C(=O)CSC2=N1 (stereo not given) | 63.3 | 2.59 µM [rising, partial curve] | 2.06 µM [rising, partial curve]
58 | Cc1cccc(C(=O)Nc2cccc(C(=O)N3CCOCC3)c2)c1 | – | – | 0.651 µM [falling, single point]
59 | CCOc1ccc(-c2nc(CSc3nnc(N)s3)cs2)cc1 | 31.8 | 4.11 µM [rising, full curve, poor fit] | 6.51 µM [rising, single point]
60 | COc1ccccc1N1C(=O)CC(Sc2nccc(C)n2)C1=O (stereo not given) | 9.8 | – | 18.4 µM [falling, single point]
61 | COc1ccc(/C=c2\sc3nc(=O)c(C)nn3c2=O)c(OC)c1 | -1.78 | – | 3.66 µM [falling, single point]
62 | CCCCN(C(=O)c1ccco1)c1c(N)n(CCC)c(=O)[nH]c1=O | 12.1 | 6.51 µM [falling, partial curve, poor fit] | 0.00411 µM [falling, full curve, poor fit]
